Data: publication doi:10.1101/414367
Results are given in words; binding and its absence hold for the method and conditions named. Binding seen in cells or lysates may run through a third protein. A yes stands for co-enrichment or nearness to the bait. Other partners may have been found. Where a sequence is shown, tags or fusion partners need not be part of it.

Chains of the proteins cited; added tags and fusions are not shown.
UniProt Q02455: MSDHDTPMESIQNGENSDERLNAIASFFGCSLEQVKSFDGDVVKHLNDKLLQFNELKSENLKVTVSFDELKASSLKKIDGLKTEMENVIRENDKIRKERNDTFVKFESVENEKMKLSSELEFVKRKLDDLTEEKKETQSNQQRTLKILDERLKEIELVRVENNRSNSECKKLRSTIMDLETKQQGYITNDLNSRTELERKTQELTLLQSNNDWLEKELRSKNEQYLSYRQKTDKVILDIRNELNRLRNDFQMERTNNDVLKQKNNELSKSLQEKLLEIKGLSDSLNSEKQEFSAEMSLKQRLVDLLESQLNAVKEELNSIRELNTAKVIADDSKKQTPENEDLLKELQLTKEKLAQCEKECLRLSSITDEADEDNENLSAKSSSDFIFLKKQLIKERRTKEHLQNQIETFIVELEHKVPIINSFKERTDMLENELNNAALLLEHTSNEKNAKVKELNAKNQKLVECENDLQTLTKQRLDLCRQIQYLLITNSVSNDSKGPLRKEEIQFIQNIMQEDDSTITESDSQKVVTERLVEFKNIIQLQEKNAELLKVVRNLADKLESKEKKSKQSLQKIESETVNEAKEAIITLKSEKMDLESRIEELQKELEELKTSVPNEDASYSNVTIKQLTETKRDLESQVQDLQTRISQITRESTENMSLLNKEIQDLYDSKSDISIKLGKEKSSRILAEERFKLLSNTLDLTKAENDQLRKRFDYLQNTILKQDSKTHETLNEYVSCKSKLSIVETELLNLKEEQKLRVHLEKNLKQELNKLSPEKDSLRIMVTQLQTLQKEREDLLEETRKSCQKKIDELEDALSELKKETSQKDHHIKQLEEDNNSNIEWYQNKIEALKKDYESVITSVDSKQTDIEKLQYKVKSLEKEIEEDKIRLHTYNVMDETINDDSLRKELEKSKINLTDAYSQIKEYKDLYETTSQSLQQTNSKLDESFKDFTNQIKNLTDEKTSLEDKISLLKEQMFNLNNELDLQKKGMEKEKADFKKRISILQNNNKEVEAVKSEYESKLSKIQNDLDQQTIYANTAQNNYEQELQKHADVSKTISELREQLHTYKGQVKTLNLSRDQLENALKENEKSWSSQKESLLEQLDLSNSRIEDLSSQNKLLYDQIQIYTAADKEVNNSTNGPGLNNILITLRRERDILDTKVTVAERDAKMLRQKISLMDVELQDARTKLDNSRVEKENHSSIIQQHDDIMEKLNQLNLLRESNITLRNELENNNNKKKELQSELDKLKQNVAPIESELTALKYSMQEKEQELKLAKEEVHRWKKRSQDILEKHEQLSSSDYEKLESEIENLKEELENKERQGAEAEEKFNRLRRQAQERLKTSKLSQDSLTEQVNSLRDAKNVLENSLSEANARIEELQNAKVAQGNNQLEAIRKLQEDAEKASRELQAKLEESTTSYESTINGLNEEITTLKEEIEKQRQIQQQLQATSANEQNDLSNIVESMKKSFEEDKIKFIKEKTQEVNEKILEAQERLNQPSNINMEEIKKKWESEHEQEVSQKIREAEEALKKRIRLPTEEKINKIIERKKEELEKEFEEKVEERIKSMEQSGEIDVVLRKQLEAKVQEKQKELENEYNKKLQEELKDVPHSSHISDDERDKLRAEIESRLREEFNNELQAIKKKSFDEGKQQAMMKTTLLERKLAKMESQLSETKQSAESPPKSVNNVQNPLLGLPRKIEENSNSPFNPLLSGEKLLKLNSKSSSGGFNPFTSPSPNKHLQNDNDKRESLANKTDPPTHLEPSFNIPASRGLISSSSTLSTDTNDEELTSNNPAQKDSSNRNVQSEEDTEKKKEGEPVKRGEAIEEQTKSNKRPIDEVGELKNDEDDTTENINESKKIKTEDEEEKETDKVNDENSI

T1: Cex1-HA (S. cerevisiae) (UniProt Q12453)
T1 sequence: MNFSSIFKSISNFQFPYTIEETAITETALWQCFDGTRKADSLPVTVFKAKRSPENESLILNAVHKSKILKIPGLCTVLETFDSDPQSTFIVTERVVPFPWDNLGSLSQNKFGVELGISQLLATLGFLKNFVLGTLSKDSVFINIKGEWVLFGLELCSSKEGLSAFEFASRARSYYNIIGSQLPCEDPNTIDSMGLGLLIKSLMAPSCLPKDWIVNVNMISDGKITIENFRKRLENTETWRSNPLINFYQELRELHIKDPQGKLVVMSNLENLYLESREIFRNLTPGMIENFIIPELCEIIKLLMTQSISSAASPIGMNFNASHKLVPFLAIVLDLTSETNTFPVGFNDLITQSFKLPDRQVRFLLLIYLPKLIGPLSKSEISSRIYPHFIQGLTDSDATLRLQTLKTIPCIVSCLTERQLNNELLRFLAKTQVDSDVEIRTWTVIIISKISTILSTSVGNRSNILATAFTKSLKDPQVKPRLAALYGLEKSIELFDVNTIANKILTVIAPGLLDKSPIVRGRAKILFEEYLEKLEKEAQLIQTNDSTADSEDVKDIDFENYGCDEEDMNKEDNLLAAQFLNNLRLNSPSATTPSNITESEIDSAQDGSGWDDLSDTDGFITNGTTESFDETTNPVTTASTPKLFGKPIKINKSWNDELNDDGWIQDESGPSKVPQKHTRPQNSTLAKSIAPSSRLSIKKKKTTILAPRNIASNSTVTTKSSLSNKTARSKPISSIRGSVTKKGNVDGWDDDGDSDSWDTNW


Target: T1, Cex1-HA (S. cerevisiae)
Test: affinity purification with mass spectrometry

Row | binding | Molecule
1 | binds | Mlp1 (from UniProt Q02455 1-1875)
2 | binds | Epo1
3 | binds | Spc42 (protein, UniProt P36094 1-363) MNGSPTPKRYSSKSSRLYDDYYNIPYQYSNPTPMNRDYNDVGSRINADKLVPEEYKRNTEFINKAVQQNKELNFKLREKQNEIFELKKIAETLRSKLEKYVDITKKLEDQNLNLQIKISDLEKKLSDANSTFKEMRFPKVKDPMVDDDPVSENYDQINVPKHRAPDATGNPRTTNKVSNTSDQDSRLKAIERTLSVLTNYVMRSEDGNNDRMSPLPSPLNTILPINNRLNFQEPKRYNPTVKVNPSDDDIMMYESAELKRVEEEIEELKRKILVRKKHDLRKLSLNNQLQELQSMMDGDDNIKLDNVSKHNHATHRHSSQSSRDYSPSSDACLECSNDLYEKNRVKPENNMSETFATPTPNNR
4 | binds | Sec21 (protein, UniProt P32074 1-935) MSAHTYKKFENSTSGDLPDKMTIYQDCMNTFNESPVNSKRCRLLISRLLRLLAQGETFPQNEATALFFSISKLFQHQNDPLRQAVYLAIKELSGISEDVLMATSSIMKDVQNGSDLIKPDAIRSLTYVLDESTAFSAERLLKSAVVSRHPSISSAALCTSYHLLPISEVTIRRFTNETQEAVLDLKQFPNQHGNSEYYPNSTYISQYHALGLLYQLKKTDKMALLKLVRHFSENNSMKNQLAKVELVKIVNDLIYRDPQLFSQFRPLLSDWLSNKFESVQLETAKLITSFATRNSRLVAPELYAAAISALQSLLTVPRVSSRFAALRILNRISMVSPEKIVVCNPELESLINDSNRNISTYAITTLLKTGTSKNISSLISTITNFIHDVSDDFKIIIIDAVRTLSLNFPQEWKSILNFLIDVLKNSEGGFKFKNSIVEALIDIVSFVPQSKELALENLCDFIEDCEFNEILVRILHLLGKEGPSAPNPSLYVRHIYNRVVLENSIIRSAAVVALSKFALTKNDPTLYESIISLLKRIANDKDDEVRDRATIALEFIDSARNKDDVIAQNLIESKYFYDIPSLESKLSSYISSNTDSFATAFDVNQVRKFTEDEMKAINLKRKQEQIFNQKSETTLDTTPEAESVPEKRADANSFAGPNLDDHQEDLLATKYADELLSIEQIKPFGQLVNSSRAISLTEPEAEFVVRGVKHLFKDNVVLQFNITNTLTDIALDNVSVVCTPEISDEAELEELFTLQVDRLLPSEEAACYVAFKKLDEIVMEGFLNNLTFTTKEINPDTNEPFDGDEGFQDEYEIDSIFLNAGDYVKSSFTGNFSATFDELPCEEVAVFNIQEDLSIQEVVDKIILNSSCLPVESTQFAPSDSNSHTLKLFGKSALTGSKVALQIKMIKSSKGLALKVHGKGEDSLLCSDLVNGLMQ
5 | binds | Bat2 (protein, UniProt P47176 1-376) MTLAPLDASKVKITTTQHASKPKPNSELVFGKSFTDHMLTAEWTAEKGWGTPEIKPYQNLSLDPSAVVFHYAFELFEGMKAYRTVDNKITMFRPDMNMKRMNKSAQRICLPTFDPEELITLIGKLIQQDKCLVPEGKGYSLYIRPTLIGTTAGLGVSTPDRALLYVICCPVGPYYKTGFKAVRLEATDYATRAWPGGCGDKKLGANYAPCVLPQLQAASRGYQQNLWLFGPNNNITEVGTMNAFFVFKDSKTGKKELVTAPLDGTILEGVTRDSILNLAKERLEPSEWTISERYFTIGEVTERSKNGELLEAFGSGTAAIVSPIKEIGWKGEQINIPLLPGEQTGPLAKEVAQWINGIQYGETEHGNWSRVVTDLN
6 | binds | Tps1 (protein, UniProt Q00764 1-495) MTTDNAKAQLTSSSGGNIIVVSNRLPVTITKNSSTGQYEYAMSSGGLVTALEGLKKTYTFKWFGWPGLEIPDDEKDQVRKDLLEKFNAVPIFLSDEIADLHYNGFSNSILWPLFHYHPGEINFDENAWLAYNEANQTFTNEIAKTMNHNDLIWVHDYHLMLVPEMLRVKIHEKQLQNVKVGWFLHTPFPSSEIYRILPVRQEILKGVLSCDLVGFHTYDYARHFLSSVQRVLNVNTLPNGVEYQGRFVNVGAFPIGIDVDKFTDGLKKESVQKRIQQLKETFKGCKIIVGVDRLDYIKGVPQKLHAMEVFLNEHPEWRGKVVLVQVAVPSRGDVEEYQYLRSVVNELVGRINGQFGTVEFVPIHFMHKSIPFEELISLYAVSDVCLVSSTRDGMNLVSYEYIACQEEKKGSLILSEFTGAAQSLNGAIIVNPWNTDDLSDAINEALTLPDVKKEVNWEKLYKYISKYTSAFWGENFVHELYSTSSSSTSSSATKN
